Test results as given in paper PMC9242860.

Protein sequences, listed by entry. Tags and fused reporters are not part of them. Lines headed by an entry give the natural chain unless they say otherwise; changes in a name come on top.
UniProt Q06710: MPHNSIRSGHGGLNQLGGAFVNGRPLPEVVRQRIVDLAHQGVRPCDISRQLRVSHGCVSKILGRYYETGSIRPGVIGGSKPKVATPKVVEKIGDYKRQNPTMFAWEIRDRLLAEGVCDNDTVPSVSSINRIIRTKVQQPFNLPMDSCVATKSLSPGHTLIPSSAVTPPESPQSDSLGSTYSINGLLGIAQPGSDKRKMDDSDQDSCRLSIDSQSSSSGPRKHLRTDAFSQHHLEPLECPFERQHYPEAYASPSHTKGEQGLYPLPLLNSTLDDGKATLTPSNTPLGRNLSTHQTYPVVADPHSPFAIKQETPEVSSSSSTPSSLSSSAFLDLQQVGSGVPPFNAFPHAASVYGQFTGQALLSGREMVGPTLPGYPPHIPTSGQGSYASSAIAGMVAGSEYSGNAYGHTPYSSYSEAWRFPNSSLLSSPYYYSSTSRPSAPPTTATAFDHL
UniProt P27540: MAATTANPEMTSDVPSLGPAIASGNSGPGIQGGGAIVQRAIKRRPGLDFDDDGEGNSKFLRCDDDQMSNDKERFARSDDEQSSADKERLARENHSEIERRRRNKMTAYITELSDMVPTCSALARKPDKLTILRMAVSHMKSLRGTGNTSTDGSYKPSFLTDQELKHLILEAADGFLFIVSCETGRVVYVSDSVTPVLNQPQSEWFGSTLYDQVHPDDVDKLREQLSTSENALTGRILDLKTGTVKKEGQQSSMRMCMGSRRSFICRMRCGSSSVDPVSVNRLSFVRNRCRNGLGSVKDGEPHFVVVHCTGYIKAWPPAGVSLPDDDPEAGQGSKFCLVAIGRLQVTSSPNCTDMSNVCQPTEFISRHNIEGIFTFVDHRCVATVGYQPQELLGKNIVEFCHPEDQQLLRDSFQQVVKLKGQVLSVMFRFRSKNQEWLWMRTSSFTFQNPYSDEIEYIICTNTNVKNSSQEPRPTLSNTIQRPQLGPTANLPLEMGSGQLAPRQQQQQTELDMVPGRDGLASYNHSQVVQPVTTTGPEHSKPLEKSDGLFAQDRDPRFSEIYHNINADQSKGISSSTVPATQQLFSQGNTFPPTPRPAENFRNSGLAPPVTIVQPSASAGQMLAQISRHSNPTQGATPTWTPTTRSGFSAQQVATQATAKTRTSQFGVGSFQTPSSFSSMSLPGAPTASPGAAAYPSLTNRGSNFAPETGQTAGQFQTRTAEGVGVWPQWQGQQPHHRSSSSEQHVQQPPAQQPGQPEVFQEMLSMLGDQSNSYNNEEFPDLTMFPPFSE

Target: paired box 8 (PAX8) (human (endogenous in 786-M1A)) (UniProt Q06710)
Experiment: affinity purification with mass spectrometry; RIME with PAX8 antibodies in 786-M1A cells; four replicates

ARNT (from UniProt P27540 1-789)
binding: binds

Results are given in words; binding and its absence hold for the method and conditions named. In cells and extracts the contact can be indirect. Here binding means that the protein was enriched with, or labelled near, the bait; the list need not be complete.
